PubChem BioAssay AID720505, Drosophila RNAi Screening Center, 2013

Test: 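Knock-downs that reduce calcium influx once internal stores are emptied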 (primary screen)
Cells: Drosophila S2R+ cells
Knock-down reagent: long dsRNA against Drosophila genes
Challenge: thapsigargin (2 µM) in calcium-free buffer to empty internal stores, then 2 mM calcium added back
Measurement: 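Stores emptied by 2 µM thapsigargin without calcium, then 2 mM calcium re-added; fluo-4 fluorescence followed by FLIPR in 384-well plates, per-well averaged endpoint, raw; two screen passes, some wells retested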
Direction: calcium signal and retest calcium signal: higher = more calcium entry after store depletion
Call rule: 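About 1500 genes called as lowering calcium entry, by varying amounts, judged against per-plate control wells with STIM1 as positive and Rho1 as negative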
Meaning of the calls: active = called as lowering calcium entry; inactive = not called
The screen tested about 20,000 reagents; below is a random part of those that have a named target and a result. In the full data, about 2,100 (10%) got an active call. 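Raw plate signals without normalisation; calls rest on control-based scores that were not deposited; replicate 2 separates called from uncalled poorly.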 The record does not give: the amount of reagent, the time to read-out.

| predicted target | DRSC id | calcium signal, replicate 1 | calcium signal, replicate 2 | retest calcium signal, replicate 1 | retest calcium signal, replicate 2 | Call |
| --- | --- | --- | --- | --- | --- | --- |
| Nepl11 (Neprilysin-like 11) | DRSC12333 | 161 | 102 | 131 | 114 | inactive |
| Stip1 (Stress induced phosphoprotein 1) | DRSC00756 | 92.3 | 196 | – | – | inactive |
| HINT1 (histidine triad nucleotide binding protein 1) | DRSC00548 | 223 | 167 | – | – | inactive |
| CG7290 | DRSC10800 | 79.4 | 91.7 | – | – | inactive |
| Obp50e (Odorant-binding protein 50e) | DRSC06434 | 60.1 | 141 | – | – | active |
| betaNACtes1 (Nascent-associated complex beta-subunit-like, testis 1) | DRSC19534 | 81.9 | 114 | – | – | inactive |
| CG10226 | DRSC09715 | 73.6 | 102 | – | – | active |
| Nepl7 (Neprilysin-like 7) | DRSC02495 | 60.9 | 117 | 96.7 | 115 | active |
| Tsp86D (Tetraspanin 86D) | DRSC15607 | 153 | 73.9 | – | – | inactive |
| CR42546 (pseudo) | DRSC03711 | 100 | 120 | – | – | inactive |
| CG6409 | DRSC10630 | 87.8 | 111 | 186 | 133 | inactive |
| CG6409 | DRSC22330 | 121 | 209 | – | – | inactive |
| CG30046 | DRSC06691 | 138 | 201 | – | – | inactive |
| CG9970 | DRSC08644 | 73.9 | 69.2 | – | – | inactive |
| hppy (happyhour) | DRSC07014 | 105 | 132 | – | – | inactive |
| hppy (happyhour) | DRSC07015 | 105 | 154 | – | – | inactive |
| hppy (happyhour) | DRSC07016 | 92 | 111 | – | – | inactive |
| beat-IIb (beaten path IIb) | DRSC14816 | 130 | 107 | – | – | inactive |
| beat-IIb (beaten path IIb) | DRSC15546 | 129 | 119 | – | – | inactive |
| CG6800 | DRSC16119 | 152 | 140 | – | – | inactive |
| CG13590 | DRSC04226 | 121 | 155 | 110 | 71 | inactive |
| Pfdn4 (Prefoldin 4) | DRSC09761 | 116 | 74.4 | – | – | inactive |
| Tmep (Transmembrane endosomal protein) | DRSC08215 | 108 | 103 | – | – | inactive |
| CG1532 | DRSC20516 | 195 | 103 | – | – | inactive |
| CG31810 | DRSC01560 | 131 | 85.6 | – | – | inactive |
| bt (bent) | DRSC17129 | 131 | 109 | – | – | inactive |
| bt (bent) | DRSC17171 | 122 | 114 | – | – | inactive |
| CG4497 | DRSC02754 | 97.6 | 132 | – | – | inactive |
| CG3009 | DRSC18263 | 96.6 | 81.2 | – | – | inactive |
| gny (garnysstan) | DRSC02810 | 98.5 | 108 | – | – | inactive |
| CG5348 | DRSC06933 | 187 | 187 | – | – | inactive |
| eIF1 (eukaryotic translation initiation factor 1) | DRSC08520 | 81.7 | 118 | – | – | inactive |
| CG17752 | DRSC15262 | 197 | 117 | – | – | inactive |
| slf (schlaff) | DRSC00583 | 194 | 111 | – | – | inactive |
| CG13032 | DRSC09912 | 106 | 144 | – | – | inactive |
| CG14696 | DRSC14919 | 182 | 80.3 | – | – | inactive |
| CG13321 | DRSC06358 | 68.6 | 90.8 | – | – | inactive |
| d4 | DRSC04881 | 144 | 98.6 | – | – | inactive |
| d4 | DRSC22674 | 89 | 115 | – | – | inactive |
| CstF50 (Cleavage stimulation factor 50 kD subunit) | DRSC15434 | 110 | 127 | – | – | inactive |
| CG13992 | DRSC02324 | 198 | 92.9 | – | – | inactive |
| Slbp (Stem-loop binding protein) | DRSC16863 | 124 | 135 | – | – | inactive |
| CG31093 | DRSC15689 | 173 | 136 | – | – | inactive |
| CG15046 | DRSC19622 | 84.5 | 119 | – | – | inactive |
| CG1951 | DRSC15403 | 77.1 | 96.4 | – | – | inactive |
| spi (spitz) | DRSC03618 | 206 | 80.9 | – | – | inactive |
| Trmt61 (tRNA methyltransferase 61) | DRSC14888 | 200 | 130 | – | – | inactive |
| BCL7-like | DRSC17729 | 130 | 144 | – | – | inactive |
| CG6638 | DRSC10680 | 104 | 69.6 | – | – | inactive |
| fend (forked end) | DRSC17867 | 67.6 | 86.2 | – | – | inactive |
| CG4950 | DRSC10463 | 94.3 | 185 | – | – | inactive |
| BckdhB (Branched chain keto acid dehydrogenase E1 subunit beta) | DRSC21183 | 61.3 | 186 | – | – | active |
| Rpn5 (Regulatory particle non-ATPase 5) | DRSC12367 | 109 | 83 | – | – | inactive |
| Daxx (Daxx-like protein) | DRSC03255 | 96.5 | 278 | – | – | inactive |
| Marc (Mitochondrial amidoxime reducing component) | DRSC06614 | 80.1 | 189 | – | – | inactive |
| Pp1-13C (Protein phosphatase 1 at 13C) | DRSC20269 | 61.4 | 67 | – | – | active |
| Pp1-13C (Protein phosphatase 1 at 13C) | DRSC23305 | 116 | 123 | – | – | inactive |
| CG14817 | DRSC18547 | 108 | 156 | – | – | inactive |
| CG14096 | DRSC10099 | 86.3 | 152 | 123 | 89.6 | inactive |
| EMC4 (ER membrane protein complex subunit 4) | DRSC11638 | 98.9 | 98.9 | – | – | inactive |
| CG4021 | DRSC04439 | 147 | 133 | – | – | inactive |
| Spn28Dc (Serpin 28Dc) | DRSC03029 | 104 | 131 | – | – | inactive |
| Ubc2 (Ubiquitin conjugating enzyme 2) | DRSC01137 | 216 | 122 | – | – | inactive |
| Ubc2 (Ubiquitin conjugating enzyme 2) | DRSC03468 | 157 | 148 | – | – | inactive |
| GlyRS (Glycyl-tRNA synthetase) | DRSC10711 | 169 | 110 | – | – | inactive |
| Hmx (H6-like-homeobox) | DRSC15307 | 113 | 139 | – | – | inactive |
| Hmx (H6-like-homeobox) | DRSC15884 | 130 | 107 | – | – | active |
| Hmx (H6-like-homeobox) | DRSC16706 | 52.3 | 164 | – | – | inactive |
| Hmx (H6-like-homeobox) | DRSC22799 | 80.1 | 95.7 | – | – | inactive |
| CG32447 | DRSC11732 | 89.3 | 101 | – | – | inactive |
| CG32447 | DRSC11805 | 133 | 167 | – | – | inactive |
| Slc25A46b | DRSC02888 | 106 | 103 | – | – | inactive |
| CG11836 | DRSC14396 | 221 | 289 | – | – | inactive |
| mago (mago nashi) | DRSC04703 | 203 | 96.7 | – | – | inactive |
| red (red Malpighian tubules) | DRSC14477 | 157 | 95.3 | – | – | inactive |
| red (red Malpighian tubules) | DRSC23177 | 88.1 | 121 | – | – | inactive |
| CG10747 | DRSC02104 | 120 | 86.1 | – | – | inactive |
| pie (pineapple eye) | DRSC03590 | 95.1 | 101 | – | – | inactive |
| CG14929 | DRSC02411 | 171 | 183 | – | – | inactive |
| CG42284 | DRSC22094 | 103 | 209 | – | – | inactive |
| CG42284 | DRSC22342 | 97.8 | 217 | – | – | inactive |
| mib1 (mind bomb 1) | DRSC10550 | 93.2 | 97 | – | – | active |
| Syx17 (Syntaxin 17) | DRSC08591 | 99.2 | 115 | – | – | inactive |
